The text below walks through data of the supplement of paper PMC8104966.

The other results are listed elsewhere or left out. This data set is noisy: repeats of one test often differ as much as different tests do.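 U2OS cells carrying ACE2 were mixed with U2OS cells carrying full-length spike, and fusion was scored by imaging as the share of nuclei showing both cell types' fluorescent markers. A compound counts as an inhibitory hit when it is non-toxic and its fusion z-score falls below -3, meaning more than three standard deviations below the plate's DMSO wells.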

For the assay, the system named is U2OS ACE2 x SARS-CoV-2 spike co-culture. Put plainly: cell-cell fusion (fraction fused) z-score vs plate DMSO control; higher = more fusion. The following applies: 30 µM; 5 h; toxicity class: non-toxic, passed QC.
Consider `C[C@]12CCC3c4ccc(OC(=O)N(CCCl)CCCl)cc4CCC3C1CC[C@@H]2O` (stereo partly drawn), for which the “cell-cell fusion (z-score)” value was inactive: -1.71.

Take `C[C@@H]([C@H](O)c1ccccc1)N(C)C`: the “cell-cell fusion (z-score)” value was inactive: 1.35.

Consider `Cl.Cl.OCCN1CCN(CC/C=C2/c3ccccc3Sc3ccc(C(F)(F)F)cc32)CC1` [cis-(Z)-Flupenthixol dihydrochloride], for which the “cell-cell fusion (z-score)” value is inactive: 3.05.

Consider `CNC[C@H](O)c1cccc(O)c1.Cl` [Phenylephrine hydrochloride], for which the “cell-cell fusion (z-score)” value is inactive: -0.0249.

Regarding `CCC(=O)O[C@H](CC(=O)O)C[N+](C)(C)C.[Cl-]`, the “cell-cell fusion (z-score)” value was inactive: 2.4.

As for `Cc1nc(N)sc1-c1ccnc(Nc2ccc(N3CCOCC3)cc2)n1`, the “cell-cell fusion (z-score)” value is inactive: -0.788.

As for `CCN[C@@H]1C[C@H](N)[C@@H](O[C@H]2OC(CN)=CC[C@H]2N)[C@H](O)[C@H]1OC1OC[C@](C)(O)[C@H](NC)[C@H]1O.O=S(=O)(O)O.O=S(=O)(O)O` (stereo partly drawn), the “cell-cell fusion (z-score)” value is inactive: 4.1.

For `CN1C(C(=O)Nc2ccccn2)=C(O)c2ccccc2S1(=O)=O` [Piroxicam], the “cell-cell fusion (z-score)” value is inactive: 1.84.

As for `CC(C)CCCC(C)C1CCC2C3CC[C@H]4C[C@@H](O)CC[C@]4(C)C3CC[C@]12C` (stereo partly drawn) [5alpha-CHOLESTANOL], the “cell-cell fusion (z-score)” value is inactive: 2.92.

As to `CCCc1nc(C)c2c(=O)[nH]c(-c3cc(S(=O)(=O)N4CCN(CC)CC4)ccc3OCC)nn12.Cl.O.O.O` [Vardenafil hydrochloride trihydrate], the “cell-cell fusion (z-score)” value was inactive: 2.4.

As to `O=c1[nH]c2cc(C(F)(F)F)ccc2n1-c1cc(C(F)(F)F)ccc1O`, the “cell-cell fusion (z-score)” value was inactive: 1.68.

`Cl.NC12CC3CC(CC(C3)C1)C2` [Amantadine hydrochloride]: the “cell-cell fusion (z-score)” value was inactive: 2.89.

With `CC12CCC3C(CC3(C)C)C(C)(CCC1=O)O2` (stereo not drawn), the “cell-cell fusion (z-score)” value is inactive: 2.55.

Take `C[N+]1(C)CCC(OC(=O)C(c2ccccc2)c2ccccc2)CC1.[I-]` [4-DAMP methiodide]: the “cell-cell fusion (z-score)” value was inactive: 3.78.

`C[N+]1(C)CCC(OC(=O)C(c2ccccc2)c2ccccc2)CC1.[I-]`: the “cell-cell fusion (z-score)” value is inactive: 2.27.

Regarding `N=C(N)NCCC[C@@H](NC(=O)[C@@H]1CCCN1C(=O)[C@@H]1CSSCCC(=O)N[C@@H](Cc2ccc(O)cc2)C(=O)N[C@@H](Cc2ccccc2)C(=O)N[C@@H](CCC(N)=O)C(=O)N[C@@H](CC(N)=O)C(=O)N1)C(=O)NCC(N)=O` [Desmopressin], the “cell-cell fusion (z-score)” value was inactive: 2.18.

With `CCCn1c(=O)c2c(ncn2C)n(CCC)c1=O` [1,3-Dipropyl-7-methylxanthine], the “cell-cell fusion (z-score)” value is inactive: 1.93.

Turning to `CC1=C2[C@H]3OC(=O)[C@@H](C)[C@@H]3CC[C@@]2(C)C=CC1=O`, the “cell-cell fusion (z-score)” value was inactive: 2.02.
